Assay results taken from patent US20210017281A1.
These are yes or no findings as the source states them, for the method shown. Some results given as binding are weak or reduced against the parent protein; the word gives no strength.

Chains of the proteins cited; added tags and fusions are not shown. Lines headed by an entry give the natural chain unless they say otherwise; changes in a name come on top.
UniProt Q9H7M9: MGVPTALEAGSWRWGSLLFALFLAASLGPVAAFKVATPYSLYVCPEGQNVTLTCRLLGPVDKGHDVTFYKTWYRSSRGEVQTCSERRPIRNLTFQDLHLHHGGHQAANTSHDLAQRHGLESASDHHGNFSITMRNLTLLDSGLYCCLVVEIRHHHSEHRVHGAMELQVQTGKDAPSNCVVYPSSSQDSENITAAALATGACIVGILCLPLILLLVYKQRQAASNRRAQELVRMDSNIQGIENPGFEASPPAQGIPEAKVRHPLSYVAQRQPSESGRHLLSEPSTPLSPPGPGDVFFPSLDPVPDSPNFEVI

Molecular target: human VISTA (human) (UniProt Q9H7M9)
Test: ELISA on recombinant VISTA

B1: INX901 | VSTB56 (antibody, V domains shown)
VH: QVQLVQSGAEVKKPGASVKVSCKASGYTFTSYWLHWVRQAPGQGLEWMGYIIPNTLHTDYNQKFKDRVTMTRDTSTSTVYMELSSLRSEDTAVYYCARLDGDYDYALDYWGQGTLVTVSS
VL: DIVMTQTPLSLSVTPGQPASISCRASESVEYYGTSFMQWYLQKPGQPPQLLIYTASNVESGVPDRFSGSGSGTDFTLKISRVEAEDVGVYYCQQSRKVPYTFGQGTKLEIK
Which binding does the source give for B1 here?
Its binding is “binds”.
